Measured values from patent publication US20240287202A1 (XYPHOS BIOSCIENCES, published 2024).
No constants are given. Whether binding was seen depends on the method and setting. Binding calls can cover weak binding; strength is not graded here.

Amino acid sequences for entries named in this document (tags omitted). A change or cut given only in a name is not applied to a line headed by its entry. Chains listed by the source or under a name are the forms on record and can include a tag or linker.
Fc-wtNKG2D (wild-type NKG2D ectodomain fused to the C-terminus of human IgG1 Fc) (P26718, form named): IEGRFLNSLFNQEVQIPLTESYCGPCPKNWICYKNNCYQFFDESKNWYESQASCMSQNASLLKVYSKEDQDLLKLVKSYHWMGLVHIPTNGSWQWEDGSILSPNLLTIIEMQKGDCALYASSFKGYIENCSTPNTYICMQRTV
UniProt Q6H3X3: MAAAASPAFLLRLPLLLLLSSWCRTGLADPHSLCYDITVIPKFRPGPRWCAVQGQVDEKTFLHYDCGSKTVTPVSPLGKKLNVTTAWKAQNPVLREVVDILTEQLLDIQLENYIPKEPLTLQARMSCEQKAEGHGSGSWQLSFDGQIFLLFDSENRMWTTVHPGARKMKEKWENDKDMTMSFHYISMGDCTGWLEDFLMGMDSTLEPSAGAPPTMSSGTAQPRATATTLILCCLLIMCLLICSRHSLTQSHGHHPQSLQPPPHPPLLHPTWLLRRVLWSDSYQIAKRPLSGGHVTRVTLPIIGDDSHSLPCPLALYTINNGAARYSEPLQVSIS

Target: Fc-wtNKG2D (wild-type NKG2D ectodomain fused to the C-terminus of human IgG1 Fc) (human) (UniProt P26718)
Experiment: Octet BLI; Fc-wtNKG2D captured on anti-human IgG Fc (AHC) tips, dilution series of His-tagged monomeric ligand

binding: binds
Substance: A1-A2 domain of human ULBP5 with C-terminal 6x-His tag (monomer) (from UniProt Q6H3X3) (ligand)
